Values from PubChem BioAssay AID686938 (Drosophila RNAi Screening Center, 2013).
Aim: 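Fly genes required for calcium entry once internal stores are emptied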 (primary screen). Cells: Drosophila S2R+ cells. Reagent: long dsRNA against Drosophila genes, about 0.25 µg dsRNA per well, roughly 10,000 cells. Duration: 5 days of knock-down before the calcium assay. Treatment: thapsigargin (SERCA pump blocker) to empty calcium stores; entry signal taken 4 min after adding it. Measured: 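Duplicate raw fluo-4 intensities per well from a plate reader, at rest and four minutes after thapsigargin emptied calcium stores; entry-to-rest ratio filled for only some wells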. Reading the numbers: calcium entry signal: higher = stronger calcium signal after store depletion; entry to resting ratio: higher = more calcium entry relative to resting level; resting calcium signal: higher = higher resting calcium signal. Active means: 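Called when the plate z-score of the entry-to-rest ratio, mean of duplicates, falls below −3; wells with low overall dye signal (Fmax z below −2) or more than five off-targets excluded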. Calls: active = strongly reduced calcium entry; inactive = no strong reduction.
In all, the deposit lists about 23,000 reagents; below is a random part of those with a known target gene and a result. In the full data, 75 (0.33%) were called active. 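Raw plate signals without normalisation; calls rest on plate z-scores that were not deposited; ratio present for only 364 wells.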 Unmarked entries are inactive. Names joined by + are all predicted targets of the reagent. The record does not give: the dose of the treatment.

no.	predicted target	DRSC id	calcium entry signal, replicate 1 (fluorescence units)	calcium entry signal, replicate 2 (fluorescence units)	entry to resting ratio	resting calcium signal, replicate 1 (fluorescence units)	resting calcium signal, replicate 2 (fluorescence units)
1	FucT6	DRSC19848	3.04e7	3.64e7		1.46e7	1.63e7
2	CG31551	DRSC12159	3.46e7	4.22e7		1.62e7	2.16e7
3	CG31551	DRSC22403	2.95e7	3.18e7		1.50e7	1.20e7
4	CG14711 + Zaf1	DRSC14934	4.09e7	3.56e7		2.13e7	1.80e7
5	Frq2	DRSC20245	3.25e7	3.52e7		1.73e7	1.64e7
6	Mur18B	DRSC20063	4.36e7	4.64e7		2.04e7	1.82e7
7	CG34348	DRSC19425	3.88e7	3.61e7		1.73e7	1.67e7
8	CG34348	DRSC19644	3.54e7	3.94e7		1.62e7	1.83e7
9	ord	DRSC04706	1.97e7	2.21e7		1.11e7	1.14e7
10	CG15579	DRSC18067	3.18e7	4.74e7		1.60e7	2.03e7
11	Nubpl	DRSC03725	4.15e7			2.11e7	
12	CG4558	DRSC18369	4.12e7	4.08e7		1.84e7	1.93e7
13	CG14411	DRSC19597	3.72e7	3.59e7		2.02e7	1.47e7
14	Pdhb	DRSC14420	3.52e7	5.12e7		1.71e7	2.33e7
15	CG6553	DRSC07002	3.86e7	3.50e7		1.95e7	1.53e7
16	sle + CG12592	DRSC21387	3.99e7	3.38e7		2.40e7	1.59e7
17	CG5254	DRSC18611	4.69e7	4.73e7	2	2.30e7	1.93e7
18	CG6565	DRSC02970	4.35e7			2.24e7	
19	CG31777	DRSC00201	2.08e7	3.44e7		1.22e7	1.51e7
20	CG5810	DRSC15880	4.29e7	3.92e7		6.44e7	1.90e7
21	CG5810	DRSC21921	3.62e7	4.83e7		1.78e7	2.45e7
22	Lsp1beta	DRSC00757	4.42e7			2.66e7	
23	Alp7	DRSC04355	4.18e7	5.63e7		2.18e7	2.29e7
24	CG2116	DRSC18206	2.71e7	2.12e7		1.15e7	1.06e7
25	CG11404	DRSC11656	3.10e7	4.69e7		1.64e7	2.10e7
26	Gdap2	DRSC06789	4.21e7	4.59e7		1.91e7	1.94e7
27	Gdap2	DRSC06790	4.01e7	5.39e7		1.79e7	2.02e7
28	CG15708	DRSC06579	4.71e7	5.46e7		2.09e7	2.53e7
29	CG13055	DRSC09936	3.24e7	5.16e7		1.87e7	2.18e7
30	Tep2	DRSC02679	3.29e7	3.97e7		1.69e7	1.88e7
31	Tep2	DRSC03451	3.07e7	3.71e7		1.63e7	1.81e7
32	CR31822	DRSC01510	3.38e7	3.63e7		1.93e7	1.94e7
33	CG12923	DRSC06237	3.49e7	3.02e7		1.60e7	1.47e7
34	gas	DRSC04521	3.18e7	3.45e7		1.70e7	1.58e7
35	CarT	DRSC03196	2.76e7			1.42e7	
36	vib	DRSC17094	3.36e7	2.72e7		1.72e7	1.32e7
37	Act5C	DRSC17723	2.54e7	3.38e7		1.25e7	1.56e7
38	CG7276	DRSC10797	3.08e7	5.72e7		1.57e7	2.27e7
39	CG14647	DRSC12233	3.61e7	4.22e7		1.77e7	2.82e7
40	CG14647	DRSC22497	4.60e7	4.09e7		2.84e7	1.91e7
